PubChem BioAssay AID1259254 | NCATS | 2017
Here is an unselected part of about 59,000 reagents. Over the whole deposit, about 1,550 (2.6%) got an active call. 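G2 share is only a proxy for re-replication; each gene was hit by three separate siRNAs, and active genes were retested.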 Reagents against one gene are numbered here. Further read-outs or replicates are left out here. No sequences are given here. Not given: the amount of reagent.

- Aim: 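Finding genes that stop cells copying their DNA twice in one cycle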 (primary screen)
- Cells: human HCT116 colorectal cancer cells
- Knock-down reagent: single siRNA against human genes
- Time to read-out: 3 days
- Measurement: 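Nuclei stained with Hoechst and imaged; cell-cycle phase assigned by DNA content; G2 share scaled per plate, non-targeting siRNA 0%, GMNN siRNA 100%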
- Reading the numbers: G2 robust z-score: higher = more G2 cells, more excess DNA replication
- Call rule: 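Active siRNAs have a G2 robust z of 5 or more median absolute deviations over the median, which in these data means about 38% or higher of GMNN control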

RNFT1 #1 gave G2 robust z-score 6.46; active.
Against RNFT1 #2, the values are G2 robust z-score 0.372; inactive.
With knock-down of RNFT1 #3 the results were G2 robust z-score -0.718; inactive.
After knock-down of SACK1H #1 the results were G2 robust z-score -0.807; inactive.
With knock-down of SACK1H #2, the record shows G2 robust z-score -0.519; inactive.
Depletion of SACK1H #3 gave: G2 robust z-score -0.518; inactive.
After knock-down of UBE2G1 #1, the screen gave G2 robust z-score -1.11; inactive.
Against UBE2G1 #2 the deposit lists G2 robust z-score 1.36; inactive.
For UBE2G1 #3, the entry reads G2 robust z-score -0.567; inactive.

Entries above marked active (1):
RNFT1 #1: G2 robust z-score = 6.46; Call = active

More entries follow.
For TMEFF1 #1, the values are G2 robust z-score 1.33; inactive.
Silencing of TMEFF1 #2 resulted in: G2 robust z-score -0.26; inactive.
TMEFF1 #3 gave G2 robust z-score 0.0852; inactive.
IMPA2 #1 showed G2 robust z-score 0.184; inactive.
After knock-down of IMPA2 #2, the record shows G2 robust z-score -1.14; inactive.
Knock-down of IMPA2 #3 resulted in: G2 robust z-score -0.562; inactive.
For CPA1 #1 the deposit lists G2 robust z-score -0.00606; inactive.
Knock-down of CPA1 #2 resulted in: G2 robust z-score 0.295; inactive.
For CPA1 #3 the deposit lists G2 robust z-score -0.435; inactive.
